Source: the supplement of paper PMC7580552
Structures can show the parent of a compound that is named as a salt. ± gives the standard deviation of the averaged measurements. The list shows a part of the results. Plates or batches differ in their baseline, so values are only roughly comparable.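 The strain is a K-12 laboratory model grown without shaking in 96-well plates, and biofilm is the crystal violet stain retained on the wells, read as absorbance. Drugs were picked as candidate specific biofilm blockers when they cut staining strongly but slowed free-floating growth by less than 70%.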

Test system: Escherichia coli W3110
Assay: biofilm formation (crystal violet staining) relative to untreated control; higher = more biofilm
Details: 10 µM; 20-24 h; 30 °C; TB

Row | Compound | biofilm formation
1 | CN1[C@@H]2CC[C@H]1C[C@@H](OC1c3ccccc3CCc3ccccc31)C2 [Deptropine citrate] | 68%
2 | NCC(O)c1ccc(O)cc1 (racemic) [(+,-)-Octopamine hydrochloride] | 59%
3 | C[C@]12CC[C@H](O)C[C@@H]1CC[C@@H]1[C@@H]2CC[C@]2(C)C(=O)CC[C@@H]12 [Epiandrosterone] | 108%
4 | CCn1cc(C(=O)O)c(=O)c2cc3c(cc21)OCO3 [Oxolinic acid] | 12%
5 | CN(C)C(=O)Oc1cc(OC(=O)N(C)C)cc(C(O)CNC(C)(C)C)c1 (configuration not stated) [Bambuterol hydrochloride] | 73%
6 | CC[C@@]1([C@@H]2O[C@@H]([C@H]3O[C@@](O)(CO)[C@H](C)C[C@@H]3C)C[C@@H]2C)CC[C@H]([C@]2(C)CC[C@]3(C[C@H](O)[C@@H](C)[C@@H]([C@@H](C)[C@@H](OC)[C@H](C)C(=O)O)O3)O2)O1 [Monensin sodium salt] | 60%
7 | CCN(C)C(=O)Oc1cccc([C@H](C)N(C)C)c1 [Rivastigmine] | 101%
8 | CCC1(c2ccc(N)cc2)CCC(=O)NC1=O (configuration not stated) [Glutethimide, para-amino] | 68%
9 | C[C@]12CC[C@@H]3c4ccc(OC(=O)N(CCCl)CCCl)cc4CC[C@H]3[C@@H]1CC[C@@H]2O [Estramustine] | 92%
10 | CC(=O)OCC(=O)[C@H]1CC[C@H]2[C@@H]3CC[C@H]4C[C@H](O)CC[C@]4(C)[C@H]3C(=O)C[C@]12C [Alfadolone acetate] | 90%
11 | NC(=O)CN1CCCC1=O [Piracetam] | 56%
12 | C=C(C)[C@@H]1[C@H]2OC(=O)[C@@H]1[C@]1(O)C[C@H]3O[C@]34C(=O)O[C@H]2[C@]14C [Picrotoxinin] | 78%
13 | CC(C)c1c(CN(C)C(C)Cc2ccccc2)n(C)n(-c2ccccc2)c1=O (configuration not stated) [Famprofazone] | 79%
14 | Cc1cccc(C)c1NC1=NCCCS1 [Xylazine] | 78%
15 | NC(=O)C[S+]([O-])C(c1ccccc1)c1ccccc1 (configuration not stated) [Modafinil] | 68%
16 | CC(=O)NC1CCSC1=O (racemic) [N-Acetyl-DL-homocysteine Thiolactone] | 72%

In the list so far, 2 contain nitrogen in an aromatic ring:
Row | Compound | biofilm formation
4 | CCn1cc(C(=O)O)c(=O)c2cc3c(cc21)OCO3 [Oxolinic acid] | 12%
13 | CC(C)c1c(CN(C)C(C)Cc2ccccc2)n(C)n(-c2ccccc2)c1=O (configuration not stated) [Famprofazone] | 79%

Next part.

Row | Compound | biofilm formation
17 | CC(Cc1ccccc1)NCCC(c1ccccc1)c1ccccc1 (configuration not stated) [Prenylamine lactate] | 121%
18 | C[C@]12CC[C@H](O)C[C@H]1CC[C@@H]1[C@@H]2C[C@@H](O)[C@]2(C)[C@@H](C3=CC(=O)OC3)CC[C@]12O [Digoxigenin] | 69.5 ± 6.4%
19 | Clc1ccc(C(OCCN2CCCCC2)c2ccccc2)cc1 (configuration not stated) [Cloperastine hydrochloride] | 78%
20 | CN1CCN(C(=O)OC2c3nccnc3C(=O)N2c2ccc(Cl)cn2)CC1 (configuration not stated) [Zopiclone] | 94%
21 | CCC(COC(=O)c1cc(OC)c(OC)c(OC)c1)(c1ccccc1)N(C)C (configuration not stated) [Trimebutine] | 80%
22 | NCCc1c[nH]c2ccc(O)cc12 [Serotonin hydrochloride] | 95%
23 | CCN(C(C)=O)c1cccc(-c2ccnc3c(C#N)cnn23)c1 [Zaleplon] | 85%
24 | CCC1(c2cccc(O)c2)CCCCN(C)C1 (configuration not stated) [Meptazinol hydrochloride] | 72%
25 | C[C@@H]1CC[C@H]2[C@@H](C)C(=O)O[C@@H]3O[C@@]4(C)CC[C@@H]1[C@]32OO4 [Artemisinin] | 66%
26 | COc1cc([C@@H]2c3cc4c(cc3[C@H](O)[C@H]3COC(=O)[C@H]23)OCO4)cc(OC)c1OC [Podophyllotoxin] | 75%
27 | CC(C)(C)NCC(O)c1ccccc1Cl (configuration not stated) [Tulobuterol] | 98%
28 | CC(C)C[C@H](CN)CC(=O)O [Pregabalin] | 65%
29 | C[C@]12Cc3c[nH]nc3C[C@@H]1CC[C@@H]1[C@@H]2CC[C@@]2(C)[C@H]1CC[C@]2(C)O [Stanozolol] | 90%
30 | C[N+]12CCC(CC1)C(OC(=O)C(O)(c1ccccc1)c1ccccc1)C2 (configuration not stated) [Clidinium bromide] | 72%
31 | CO[C@]12C[C@@H](COC(=O)c3cncc(Br)c3)CN(C)[C@@H]1Cc1cn(C)c3cccc2c13 [Nicergoline] | 68%
32 | CC(=O)OCC1=C(C(=O)O)N2C(=O)[C@@H](N)[C@H]2SC1 [Cephalosporanic acid, 7-amino] | 100%
